One experiment has as its target CAL PDZ (Homo sapiens, UniProt Q9HD26). Put plainly: CALP fluorescence polarization (FP) competition assay, HTS format with dose-response validation. Further details: Inhibitory activity CALP at 100 μM: unit not given here.
The target of the next experiment is Human-Dab2-DH (Homo sapiens, UniProt P98082). Put plainly: Dab2 FP competition assay via HTS. The conditions noted are these: read-out: Inhibitory activity Dab2 IC50. It counts as binding. As to the method: CALP and/or Dab2 inhibition assays were performed in biochemical “mix-and-measure” format in order to evaluate the effects on activation and inhibition of CALP and/or Dab2 by the compounds of the disclosure. Brief assay procedure is provided below. Unless otherwise specified, all of the compounds were obtained from commercial sources.
Dab-2 inhibitors were also identified by FP competition assays via HTS. Human-Dab2-DH, residues 31-191 (Uniprot: P98082), and trDab2-DH (residues 33-178) was subcloned into the pET16b vector via PCR utilizing the restriction enzyme sites of Xhol and BamHI. The construct was designed with a 3C protease cleavage site directly upstream and in-frame with the protein coding sequence. DNA was sequence verified. (0.1 mM) IPTG was used to induce protein expression in E. coli BL21(DE3)RIL cells, after reaching an O.D. of 06. […]
For experiments conducted at the University of Pittsburgh Lab and Drug Discovery Institute, single-dose HTS assays were performed with a library containing ˜220,000 compounds. […] Compound plates containing assay ready 2 μL aliquots of a 1 mM stock solution in DMSO were thawed, reconstituted in FP buffer to a concentration of 30 μM in 3% DMSO, and five μL transferred to low volume assay plates using a Perkin Elmer MDT. […] Plates were read at 1.5-h and 4-h on the Envision multilabel reader.

By UniProt entry, the sequences of proteins in these tests, tags left out. Residues count along the entry.
UniProt P98082, 33-178 limits assumed: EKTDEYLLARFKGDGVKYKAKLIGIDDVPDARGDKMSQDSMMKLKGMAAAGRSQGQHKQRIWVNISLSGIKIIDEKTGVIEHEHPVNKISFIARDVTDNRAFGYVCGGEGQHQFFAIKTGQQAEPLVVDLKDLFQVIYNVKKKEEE

The structures given here were assigned with low confidence; some may be wrong.

Take `CCC(C)/C=C/C1=CC2=C(Cl)C(=O)C3(C)OC(=O)C(C(=O)C(C)C(C)O)=C3C2=CO1` (stereo not drawn): the “Inhibitory activity CALP at 100 μM” value on CAL PDZ (at 100 μM) was −72.96. The results for the 50% inhibitory concentration (IC50) on CAL PDZ (read-out: Inhibitory activity CALP IC50) and on Human-Dab2-DH were 34.2 µM and 7.54 µM, respectively.

The record behind these values is patent US20230338340A1, “Methods of Treating Cystic Fibrosis” (The Trustees of Dartmouth College, priority 2020, published 2023).
